{"source": "PubChem BioAssay AID1671195 (Yale University, 2021)", "assay": "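Genes whose knockdown alters LDL uptake in liver cancer cells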 (primary screen)", "cell system": "human Huh7 hepatoma cells", "reagent": "siRNA pool against human genes, 18 nM", "time to read-out": "about 2 to 2.5 days of knockdown, then 8 h LDL uptake", "challenge": "DiI-labelled LDL at 30 µg/ml for 8 h, in lipoprotein-deficient serum medium", "measured": "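Per-cell DiI-LDL intensity by automated imaging; well means scaled to the plate median and given as a robust z-score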", "scale": "robust z-score: higher = more LDL uptake after knockdown", "active means": "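a gene counts as active if at least two replicate z-scores exceed ±2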", "note": "Shown is one part, drawn at random, of about 22,000 reagents tested. Of all reagents, about 1,510 (6.9%) got an active call. 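Active includes knockdowns raising or lowering LDL uptake; positive z-scores mean more uptake, negative mean less.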 A number with no mark means an inactive call. The numbers tell different reagents against one gene apart."}
The opening 2 entries, ahead of the listing:
{"Target gene": "CNTNAP2 (GeneID 26047)", "reagent": 1, "robust z-score, replicate 1": 0.409, "robust z-score, replicate 2": 1.19, "robust z-score, replicate 3": 0.232}
{"Target gene": "LOC440472 (retired record) (GeneID 440472)", "reagent": 1, "robust z-score, replicate 1": -0.799, "robust z-score, replicate 2": -1.08, "robust z-score, replicate 3": -0.952}

The listing, repeating the preview:
{"Target gene": "CNTNAP2 (GeneID 26047)", "reagent": 1, "robust z-score, replicate 1": 0.409, "robust z-score, replicate 2": 1.19, "robust z-score, replicate 3": 0.232}
{"Target gene": "LOC440472 (retired record) (GeneID 440472)", "reagent": 1, "robust z-score, replicate 1": -0.799, "robust z-score, replicate 2": -1.08, "robust z-score, replicate 3": -0.952}
{"Target gene": "FAHD2A (GeneID 51011)", "reagent": 1, "robust z-score, replicate 1": 1.65, "robust z-score, replicate 2": 0.128, "robust z-score, replicate 3": 1.03}
{"Target gene": "GGN (GeneID 199720)", "reagent": 1, "robust z-score, replicate 1": 0.481, "robust z-score, replicate 2": 1.34, "robust z-score, replicate 3": 0.959}
{"Target gene": "TAAR8 (GeneID 83551)", "reagent": 1, "robust z-score, replicate 1": 1.57, "robust z-score, replicate 2": 0.887, "robust z-score, replicate 3": 1.3}
{"Target gene": "SLC35G3 (GeneID 146861)", "reagent": 1, "robust z-score, replicate 1": -1.14, "robust z-score, replicate 2": -1.79, "robust z-score, replicate 3": -1.72}
{"Target gene": "NIF3L1 (GeneID 60491)", "reagent": 1, "robust z-score, replicate 1": 1.55, "robust z-score, replicate 2": 1.45, "robust z-score, replicate 3": 1.14}
{"Target gene": "UGT2B10 (GeneID 7365)", "reagent": 1, "robust z-score, replicate 1": 0.358, "robust z-score, replicate 2": 0.149, "robust z-score, replicate 3": 0.56}
{"Target gene": "SPSB3 (GeneID 90864)", "reagent": 1, "robust z-score, replicate 1": -0.31, "robust z-score, replicate 2": -0.809, "robust z-score, replicate 3": -0.901}
{"Target gene": "BOLA3 (GeneID 388962)", "reagent": 1, "robust z-score, replicate 1": -0.238, "robust z-score, replicate 2": -0.664, "robust z-score, replicate 3": -0.369}
{"Target gene": "RNF207 (GeneID 388591)", "reagent": 1, "robust z-score, replicate 1": 0.442, "robust z-score, replicate 2": 0.147, "robust z-score, replicate 3": 0.237}
{"Target gene": "RNF207 (GeneID 388591)", "reagent": 2, "robust z-score, replicate 1": -0.846, "robust z-score, replicate 2": 0.01, "robust z-score, replicate 3": -1.21}
